Some of the results follow.

Protein sequences, listed by entry. Tags and fused reporters are not part of them.
UniProt Q0JBA9, entry or part of it: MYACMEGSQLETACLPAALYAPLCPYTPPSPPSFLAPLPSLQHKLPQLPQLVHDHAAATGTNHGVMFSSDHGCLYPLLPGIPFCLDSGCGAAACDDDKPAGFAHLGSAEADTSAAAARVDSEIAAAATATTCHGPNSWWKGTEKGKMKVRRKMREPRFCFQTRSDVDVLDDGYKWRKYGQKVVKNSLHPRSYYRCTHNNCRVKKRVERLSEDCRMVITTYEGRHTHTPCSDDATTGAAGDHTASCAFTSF

The target of the test is OsWRKY34 (Oryza sativa, UniProt Q0JBA9 1-250). Kind of test: protein-binding microarray (RPBM); PBS, 2% BSA, 51.3 ng/ul salmon testes DNA, 50 uM zinc acetate, 200 nM TF, 25 C, 1 h; high values mean tight binding. As to conditions: protein: recombinant; tags: N-terminal polyhistidine and DsRed monomer fusion (pET32a); label: CyDye5-dUTP incorporated in the synthesized complementary strand; 3' TTTTT single-stranded linker to array surface; dsDNA, one strand shown. The method in brief:
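The binding signal is fluorescence intensity per feature, in arbitrary units, read on an Axon 4000B scanner. Polyhistidine- and DsRed-tagged transcription factors (N-terminal fusions) from E. coli BL21-CodonPlus were purified on Ni–NTA and applied at 200 nM for 1 h at 25 °C to a double-stranded, BSA-blocked custom Agilent array in buffer with 50 µM zinc acetate.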
Turning to “GCCAACAGTACAGAGGCCTCGCTTGTTCATCTTCGTCTCGCGGAGTCACCTAGTGCAG”, the binding signal is 10900 fluorescence intensity (a.u.).
The result for “AATTAGTAGGTATGTGTTTTTCATGGTGATTAACGCTTTTCGGAGTCACCTAGTGCAG” reads 9070 fluorescence intensity (a.u.); that for “TATCGAACCAAACTGTGGCATGTACTTAATTTTAGATAATCGGAGTCACCTAGTGCAG”, 9500 fluorescence intensity (a.u.); that for “TACATTGTTGTTCTTTTGAATTGGGACGCTCGATTTTTTCCGGAGTCACCTAGTGCAG”, 8350 fluorescence intensity (a.u.).
As to “GAGCCCTTAATCCACTGTTCTAGTGACATAATCCACTGTTCGGAGTCACCTAGTGCAG”, the binding signal was 8970 fluorescence intensity (a.u.).
Regarding “AATATTTCATCAGTTTCTAAATTTTTGACGCCGTTGACTTCGGAGTCACCTAGTGCAG”, the binding signal is 10200 fluorescence intensity (a.u.).
In the case of “ACACCGTTGACTTTTTAGCACGTGTTTGACCGTTCACCTTCGGAGTCACCTAGTGCAG” it was 26900 fluorescence intensity (a.u.); in that of “GTATATTTTATGTTAACTTAGGGCTTGTTTGGTTTGTAACCGGAGTCACCTAGTGCAG”, 8520 fluorescence intensity (a.u.).
The result for “ATTCGACGGGCGGACTCACTAACATGCATCACTCCATTTACGGAGTCACCTAGTGCAG” reads 8360 fluorescence intensity (a.u.); that for “TGTTTCGATTTTGAAGGGGTGGGTAGGAGAGAGGGGAAAACGGAGTCACCTAGTGCAG”, 13400 fluorescence intensity (a.u.); that for “TTTGTTGACGTTTTTCACATATTTTTATTGTAAACTTGTACGGAGTCACCTAGTGCAG”, 9930 fluorescence intensity (a.u.).
In the case of “ATCGCTGATGACCTTGTCGAATTTGTTGCCAAAGTGGTTCCGGAGTCACCTAGTGCAG” it was 8670 fluorescence intensity (a.u.).
For “CATGTCCGCCTACATCCTCGTTCTCGTCATCTTGGTCTGCCGGAGTCACCTAGTGCAG”, the binding signal is 10900 fluorescence intensity (a.u.).
As for “CTCTCAATTAGTCTACGACATTTCGTTCTGTCCTCGATCGCGGAGTCACCTAGTGCAG”, the binding signal is 8710 fluorescence intensity (a.u.).
Consider “TTTTCGCTTTGATCCCTTCTATACCCCTCCCGTTAGGTTTCGGAGTCACCTAGTGCAG”, for which the binding signal was 9330 fluorescence intensity (a.u.).
The result for “CGATCGTCCGTTGCTTTGGACCGTTGGTGTGGTAGTAACTCGGAGTCACCTAGTGCAG” reads 8820 fluorescence intensity (a.u.).
Regarding “TACCACATTGTTGTGTACTGACAGCTTCTTGAGTTTGGGGCGGAGTCACCTAGTGCAG”, the binding signal was 8560 fluorescence intensity (a.u.).
Take “AATTCCTACGTTTTTCCTATTCCTGTGTTTTTCCTATCCTCGGAGTCACCTAGTGCAG”: the binding signal is 8920 fluorescence intensity (a.u.).
In the case of “AAATAGCGGACCATCCTTTCTTCCCTACACCACACACCAACGGAGTCACCTAGTGCAG”, the binding signal is 8410 fluorescence intensity (a.u.).
Turning to “AATCTAAATATACGTTTCACTGAAAACGACACCCGCACATCGGAGTCACCTAGTGCAG”, the binding signal is 8120 fluorescence intensity (a.u.).
In the case of “TAATTTTTTTCTATTTGTGTTTATTGTGCCACGTTATCTACGGAGTCACCTAGTGCAG” it was 9830 fluorescence intensity (a.u.); in that of “CGTCGCAGAGAGCGAGTGCCAGGTTCAGTTGTCCAATTCACGGAGTCACCTAGTGCAG”, 8550 fluorescence intensity (a.u.); in that of “CTGATTCGTGGGAGGTGGTGGTGTCTGATTCGTGGGAGGCCGGAGTCACCTAGTGCAG”, 9890 fluorescence intensity (a.u.).
In the case of “ATTATAGACATTTCTACTTCTCTCGTACATATTTATATGCCGGAGTCACCTAGTGCAG” it was 8110 fluorescence intensity (a.u.).
The result for “GTAAATTATGTATGACGCGGTTGACTTTTTATTAACGTTTCGGAGTCACCTAGTGCAG” reads 16800 fluorescence intensity (a.u.); that for “CTCCATCACCCTCGTCCTCACCGACGGGCCCTACAAGGGGCGGAGTCACCTAGTGCAG”, 9610 fluorescence intensity (a.u.); that for “AAGTGATTCCCACCTAGCTAGCTTTGCTCCTATATAAAGCCGGAGTCACCTAGTGCAG”, 8920 fluorescence intensity (a.u.).
Consider “AACGGAATTAAACTAACCGTTGACTAGCGGCAATGGTATGCGGAGTCACCTAGTGCAG”, for which the binding signal was 10100 fluorescence intensity (a.u.).
In the case of “GATACTGTTGGATTATTCTCTCACCATCAATTTGCTTTAGCGGAGTCACCTAGTGCAG” it was 8040 fluorescence intensity (a.u.); in that of “ACACTCGCTCTCGCCTTGACCAAAGCCCACATCGCGCAGGCGGAGTCACCTAGTGCAG”, 9020 fluorescence intensity (a.u.); in that of “TCCCGTTCAGTCAAGTGTCCACCCAGTTCTTGCATGACGGCGGAGTCACCTAGTGCAG”, 8980 fluorescence intensity (a.u.).
As for “TCTTCGCTTTCTCCGCCTCCTCGTCCCGCTCGGGCGACGTCGGAGTCACCTAGTGCAG”, the binding signal was 9280 fluorescence intensity (a.u.).
In the case of “ATATCGTCGCTTCCGCTTCTCTCCCTCTCTCGCCCCGCTCCGGAGTCACCTAGTGCAG” it was 13300 fluorescence intensity (a.u.); in that of “CTCCGAGATTGATCTTGCCCGCTCTCATGTGCGAAAGCTTCGGAGTCACCTAGTGCAG”, 8340 fluorescence intensity (a.u.).
The result for “ATATTTAAAAAAGTCAACGGCGTCAAACATTTTGAAACGGCGGAGTCACCTAGTGCAG” reads 16800 fluorescence intensity (a.u.); that for “GCTACTAAGGAGTACTACAATATTGCATCATCGTCATCATCGGAGTCACCTAGTGCAG”, 9960 fluorescence intensity (a.u.).
The result for “GGTGGAATACTTAAAATTGTATTCTTTGCTACTTACCTCACGGAGTCACCTAGTGCAG” reads 8470 fluorescence intensity (a.u.); that for “GATAGAGGAGAGGGTGGGCGCGCAACAGCAATAAGCATTACGGAGTCACCTAGTGCAG”, 9420 fluorescence intensity (a.u.).
Regarding “TTGCACCAGTGCCACTGCCACCTAGCTCACCCTGTCATTTCGGAGTCACCTAGTGCAG”, the binding signal is 8260 fluorescence intensity (a.u.).
Regarding “ACGACGCGCCATACCTGCCTGCCCCTGCCGCCTCCATCACCGGAGTCACCTAGTGCAG”, the binding signal was 9760 fluorescence intensity (a.u.).
In the case of “GTTCGTCTCGCCCCAGTTCATCCTCCACCATCCACATATGCGGAGTCACCTAGTGCAG” it was 8030 fluorescence intensity (a.u.).
The result for “TCATGCCCTGTTCCTTTTTTCTTTTCAATGTCTCATTCAACGGAGTCACCTAGTGCAG” reads 10800 fluorescence intensity (a.u.).
